Experimental data as given in the supplement of paper PMC12819154, “High-throughput peptide-centric local stability assay extends protein–ligand identification to membrane proteins, tissues and bacteria” (Nature Structural & Molecular Biology, 2025).
The list shows a part of the results. Small differences around the control level are noise.

By UniProt entry, the sequences of proteins in these tests, tags left out. Where a name states a change or a piece, a line headed by the entry shows the natural chain unless it says otherwise.
UniProt Q02248, whole entry: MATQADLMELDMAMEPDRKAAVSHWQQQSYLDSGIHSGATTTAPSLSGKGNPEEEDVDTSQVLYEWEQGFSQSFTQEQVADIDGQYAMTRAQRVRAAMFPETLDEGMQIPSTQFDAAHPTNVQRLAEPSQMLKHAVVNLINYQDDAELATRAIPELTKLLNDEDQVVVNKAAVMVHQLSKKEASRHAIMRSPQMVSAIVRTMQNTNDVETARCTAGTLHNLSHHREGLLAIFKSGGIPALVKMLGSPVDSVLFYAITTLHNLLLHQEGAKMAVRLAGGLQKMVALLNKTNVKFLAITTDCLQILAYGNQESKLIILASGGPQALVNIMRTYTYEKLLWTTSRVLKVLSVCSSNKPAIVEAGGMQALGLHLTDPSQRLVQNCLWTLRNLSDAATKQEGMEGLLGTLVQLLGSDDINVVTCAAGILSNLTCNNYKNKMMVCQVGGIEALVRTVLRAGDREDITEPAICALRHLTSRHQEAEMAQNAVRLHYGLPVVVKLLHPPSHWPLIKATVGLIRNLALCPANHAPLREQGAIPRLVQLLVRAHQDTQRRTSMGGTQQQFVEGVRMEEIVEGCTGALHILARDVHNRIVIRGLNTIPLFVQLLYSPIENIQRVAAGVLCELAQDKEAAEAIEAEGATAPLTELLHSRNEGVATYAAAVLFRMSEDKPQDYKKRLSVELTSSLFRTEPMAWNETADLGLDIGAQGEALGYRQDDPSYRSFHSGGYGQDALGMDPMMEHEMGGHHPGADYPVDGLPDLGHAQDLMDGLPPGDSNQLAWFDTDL
UniProt P97801, whole entry: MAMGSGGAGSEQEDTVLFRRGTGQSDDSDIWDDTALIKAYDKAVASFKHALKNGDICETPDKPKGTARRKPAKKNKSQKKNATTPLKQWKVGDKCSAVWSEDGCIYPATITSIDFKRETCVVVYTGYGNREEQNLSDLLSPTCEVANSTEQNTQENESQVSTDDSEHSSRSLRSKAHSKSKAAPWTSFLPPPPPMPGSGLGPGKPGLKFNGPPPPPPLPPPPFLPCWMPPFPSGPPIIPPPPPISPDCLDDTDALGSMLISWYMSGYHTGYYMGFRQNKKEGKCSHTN
UniProt P97429: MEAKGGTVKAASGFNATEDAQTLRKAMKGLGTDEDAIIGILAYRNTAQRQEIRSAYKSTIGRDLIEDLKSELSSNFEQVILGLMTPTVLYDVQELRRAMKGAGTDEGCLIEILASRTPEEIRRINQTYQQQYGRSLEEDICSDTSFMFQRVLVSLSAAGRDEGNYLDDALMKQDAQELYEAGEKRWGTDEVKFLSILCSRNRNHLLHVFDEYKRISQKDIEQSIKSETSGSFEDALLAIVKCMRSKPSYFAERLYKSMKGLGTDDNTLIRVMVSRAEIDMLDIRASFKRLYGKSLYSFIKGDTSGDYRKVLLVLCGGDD
UniProt Q01320: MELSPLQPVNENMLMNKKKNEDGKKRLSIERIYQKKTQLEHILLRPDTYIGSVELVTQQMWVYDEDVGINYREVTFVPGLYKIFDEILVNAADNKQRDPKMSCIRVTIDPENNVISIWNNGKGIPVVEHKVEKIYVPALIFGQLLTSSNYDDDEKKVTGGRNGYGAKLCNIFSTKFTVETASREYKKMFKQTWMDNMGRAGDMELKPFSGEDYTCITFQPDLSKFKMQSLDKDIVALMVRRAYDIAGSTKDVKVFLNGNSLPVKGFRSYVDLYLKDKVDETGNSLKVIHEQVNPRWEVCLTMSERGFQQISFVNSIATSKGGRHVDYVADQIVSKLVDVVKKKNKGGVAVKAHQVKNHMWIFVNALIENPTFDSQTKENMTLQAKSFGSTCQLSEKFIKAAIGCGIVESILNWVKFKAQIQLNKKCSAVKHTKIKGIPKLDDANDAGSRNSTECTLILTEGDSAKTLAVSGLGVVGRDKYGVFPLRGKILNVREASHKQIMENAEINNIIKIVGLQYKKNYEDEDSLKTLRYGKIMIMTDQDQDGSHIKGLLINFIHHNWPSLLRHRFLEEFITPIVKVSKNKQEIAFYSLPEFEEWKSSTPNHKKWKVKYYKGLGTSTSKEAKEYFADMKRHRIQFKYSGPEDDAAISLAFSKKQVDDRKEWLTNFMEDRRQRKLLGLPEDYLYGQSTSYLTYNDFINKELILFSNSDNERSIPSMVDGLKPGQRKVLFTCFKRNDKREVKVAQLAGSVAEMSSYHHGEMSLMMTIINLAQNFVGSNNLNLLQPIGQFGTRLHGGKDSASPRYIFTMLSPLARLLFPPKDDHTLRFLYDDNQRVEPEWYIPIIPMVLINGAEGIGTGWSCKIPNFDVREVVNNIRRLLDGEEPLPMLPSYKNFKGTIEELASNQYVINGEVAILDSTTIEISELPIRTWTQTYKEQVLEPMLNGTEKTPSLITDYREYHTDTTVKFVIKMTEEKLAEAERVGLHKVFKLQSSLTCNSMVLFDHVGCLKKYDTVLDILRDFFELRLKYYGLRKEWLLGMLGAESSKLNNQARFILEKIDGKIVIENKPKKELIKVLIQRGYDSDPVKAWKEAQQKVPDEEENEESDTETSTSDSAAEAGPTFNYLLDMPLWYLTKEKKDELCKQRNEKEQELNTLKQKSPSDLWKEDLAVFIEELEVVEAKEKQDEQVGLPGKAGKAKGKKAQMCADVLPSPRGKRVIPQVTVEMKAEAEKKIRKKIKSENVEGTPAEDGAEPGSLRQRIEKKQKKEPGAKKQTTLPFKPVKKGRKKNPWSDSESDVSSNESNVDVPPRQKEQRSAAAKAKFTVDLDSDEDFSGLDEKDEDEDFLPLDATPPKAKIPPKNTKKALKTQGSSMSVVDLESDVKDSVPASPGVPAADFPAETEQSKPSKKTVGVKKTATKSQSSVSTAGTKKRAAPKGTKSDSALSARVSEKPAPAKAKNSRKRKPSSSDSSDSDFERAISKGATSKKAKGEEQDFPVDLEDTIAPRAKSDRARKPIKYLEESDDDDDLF
UniProt P70452: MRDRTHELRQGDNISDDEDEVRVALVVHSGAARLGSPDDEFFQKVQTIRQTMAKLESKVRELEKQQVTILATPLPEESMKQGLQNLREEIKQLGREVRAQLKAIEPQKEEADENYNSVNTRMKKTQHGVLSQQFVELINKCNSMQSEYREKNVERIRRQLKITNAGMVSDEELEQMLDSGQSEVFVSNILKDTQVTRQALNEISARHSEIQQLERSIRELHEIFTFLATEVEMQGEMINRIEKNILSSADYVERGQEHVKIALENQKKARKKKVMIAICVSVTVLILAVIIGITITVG
UniProt Q01768, whole entry: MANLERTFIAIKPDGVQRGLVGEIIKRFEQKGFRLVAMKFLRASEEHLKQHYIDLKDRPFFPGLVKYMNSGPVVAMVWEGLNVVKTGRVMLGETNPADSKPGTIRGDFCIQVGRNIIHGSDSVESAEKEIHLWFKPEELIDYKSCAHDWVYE
UniProt P70297: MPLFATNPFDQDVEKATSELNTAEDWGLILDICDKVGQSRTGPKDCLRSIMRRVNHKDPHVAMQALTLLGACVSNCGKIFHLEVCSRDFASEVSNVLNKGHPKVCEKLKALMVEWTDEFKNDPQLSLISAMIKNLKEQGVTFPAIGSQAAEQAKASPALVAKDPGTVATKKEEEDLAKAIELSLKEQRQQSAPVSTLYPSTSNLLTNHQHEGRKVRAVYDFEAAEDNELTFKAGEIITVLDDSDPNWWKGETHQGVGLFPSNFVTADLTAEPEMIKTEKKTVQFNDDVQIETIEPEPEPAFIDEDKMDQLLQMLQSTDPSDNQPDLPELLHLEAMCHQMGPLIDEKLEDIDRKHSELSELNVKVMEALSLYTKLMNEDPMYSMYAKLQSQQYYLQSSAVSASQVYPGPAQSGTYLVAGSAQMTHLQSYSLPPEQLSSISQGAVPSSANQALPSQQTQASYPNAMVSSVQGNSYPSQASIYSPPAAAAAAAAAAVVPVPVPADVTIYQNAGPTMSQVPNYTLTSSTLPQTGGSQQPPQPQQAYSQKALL
UniProt P70700, whole entry: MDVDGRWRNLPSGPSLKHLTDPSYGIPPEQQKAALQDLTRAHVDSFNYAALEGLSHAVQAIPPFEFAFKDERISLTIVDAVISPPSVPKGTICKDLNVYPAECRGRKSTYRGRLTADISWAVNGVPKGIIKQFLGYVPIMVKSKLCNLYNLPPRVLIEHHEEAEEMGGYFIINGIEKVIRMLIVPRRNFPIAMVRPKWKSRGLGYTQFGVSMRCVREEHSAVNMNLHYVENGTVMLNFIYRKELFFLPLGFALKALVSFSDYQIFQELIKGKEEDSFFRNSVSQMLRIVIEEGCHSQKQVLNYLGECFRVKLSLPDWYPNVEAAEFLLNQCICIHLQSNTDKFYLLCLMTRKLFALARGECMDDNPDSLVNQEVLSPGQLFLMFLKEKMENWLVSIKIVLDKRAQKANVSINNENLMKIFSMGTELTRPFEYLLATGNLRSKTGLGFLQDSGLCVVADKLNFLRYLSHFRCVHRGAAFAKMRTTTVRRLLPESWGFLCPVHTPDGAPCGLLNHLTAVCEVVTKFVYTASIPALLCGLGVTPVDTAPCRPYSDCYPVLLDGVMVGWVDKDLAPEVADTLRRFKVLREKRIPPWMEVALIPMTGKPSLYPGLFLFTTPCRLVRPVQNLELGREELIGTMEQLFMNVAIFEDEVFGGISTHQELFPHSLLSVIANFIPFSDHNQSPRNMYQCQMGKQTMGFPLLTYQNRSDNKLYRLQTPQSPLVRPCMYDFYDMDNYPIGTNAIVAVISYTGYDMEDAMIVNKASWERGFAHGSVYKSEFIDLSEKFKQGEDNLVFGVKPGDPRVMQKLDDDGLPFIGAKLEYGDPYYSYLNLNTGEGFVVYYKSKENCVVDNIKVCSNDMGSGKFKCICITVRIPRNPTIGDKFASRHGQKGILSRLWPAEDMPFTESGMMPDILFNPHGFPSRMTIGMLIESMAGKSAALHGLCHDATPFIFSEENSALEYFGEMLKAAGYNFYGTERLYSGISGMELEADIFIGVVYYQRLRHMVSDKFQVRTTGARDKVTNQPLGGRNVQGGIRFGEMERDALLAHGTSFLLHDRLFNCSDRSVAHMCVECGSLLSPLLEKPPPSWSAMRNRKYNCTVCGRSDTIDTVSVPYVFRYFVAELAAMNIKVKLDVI
UniProt P70181: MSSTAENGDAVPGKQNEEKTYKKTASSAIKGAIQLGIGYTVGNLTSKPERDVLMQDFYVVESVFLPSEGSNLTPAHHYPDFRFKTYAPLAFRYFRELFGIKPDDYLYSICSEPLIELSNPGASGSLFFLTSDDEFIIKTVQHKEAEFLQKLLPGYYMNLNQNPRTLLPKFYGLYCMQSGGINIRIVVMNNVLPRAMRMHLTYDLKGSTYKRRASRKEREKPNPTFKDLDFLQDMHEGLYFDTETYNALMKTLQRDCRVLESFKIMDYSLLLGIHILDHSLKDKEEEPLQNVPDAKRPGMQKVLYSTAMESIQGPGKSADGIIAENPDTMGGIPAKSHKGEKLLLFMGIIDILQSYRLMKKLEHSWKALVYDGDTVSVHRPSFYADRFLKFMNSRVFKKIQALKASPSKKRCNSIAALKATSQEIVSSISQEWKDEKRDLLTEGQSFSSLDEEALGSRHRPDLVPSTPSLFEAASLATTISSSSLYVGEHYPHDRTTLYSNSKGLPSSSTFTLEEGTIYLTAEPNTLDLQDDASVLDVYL
UniProt P63300, whole entry: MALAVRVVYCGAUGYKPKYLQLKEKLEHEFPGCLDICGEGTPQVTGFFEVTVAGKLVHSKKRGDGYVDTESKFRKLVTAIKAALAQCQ
UniProt P97808: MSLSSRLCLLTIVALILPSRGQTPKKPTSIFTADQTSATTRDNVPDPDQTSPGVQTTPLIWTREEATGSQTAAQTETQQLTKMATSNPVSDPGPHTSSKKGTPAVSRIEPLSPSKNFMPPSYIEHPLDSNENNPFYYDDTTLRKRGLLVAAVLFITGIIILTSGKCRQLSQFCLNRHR
UniProt P97314: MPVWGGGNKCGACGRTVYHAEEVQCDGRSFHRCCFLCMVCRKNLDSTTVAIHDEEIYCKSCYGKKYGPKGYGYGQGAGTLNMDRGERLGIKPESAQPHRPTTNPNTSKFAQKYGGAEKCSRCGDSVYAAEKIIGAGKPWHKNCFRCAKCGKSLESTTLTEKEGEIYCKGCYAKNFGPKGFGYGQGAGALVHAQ
UniProt P97379: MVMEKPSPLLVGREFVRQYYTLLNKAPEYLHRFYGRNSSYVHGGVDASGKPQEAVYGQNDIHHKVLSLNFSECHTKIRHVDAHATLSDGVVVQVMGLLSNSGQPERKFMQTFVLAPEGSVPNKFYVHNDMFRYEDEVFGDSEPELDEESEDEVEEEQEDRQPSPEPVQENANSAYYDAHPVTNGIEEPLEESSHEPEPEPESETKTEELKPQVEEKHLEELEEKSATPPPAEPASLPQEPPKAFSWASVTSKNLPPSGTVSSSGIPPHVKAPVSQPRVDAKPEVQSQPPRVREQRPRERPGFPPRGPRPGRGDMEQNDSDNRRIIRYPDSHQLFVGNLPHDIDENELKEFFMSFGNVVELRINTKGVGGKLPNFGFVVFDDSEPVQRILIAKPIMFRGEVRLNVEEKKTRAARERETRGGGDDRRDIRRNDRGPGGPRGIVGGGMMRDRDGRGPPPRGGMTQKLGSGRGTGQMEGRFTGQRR

compound: CN[C@@H]1C[C@H]2O[C@@](C)([C@@H]1OC)n1c3ccccc3c3c4c(c5c6ccccc6n2c5c31)C(=O)NC4 [staurosporine]; assay: log2 fold change of tryptic peptide abundance, ligand vs vehicle (limited proteolysis) (log2 ratio); higher = more trypsin-susceptible (destabilized); conditions: ligand concentration: 20 uM; sample: mouse liver crude lysate; replicate design: treated separately

Target	log2 fold change
UniProt Q02248 (peptide sequence: CTAGTLHNLSHHR, peptide start residue: 213)	-0.569
UniProt P70266 (peptide sequence: GKTYISTK, peptide start residue: 54)	-0.524
UniProt P70333 (peptide sequence: KLMTMQR, peptide start residue: 200)	-0.313
UniProt P98203 (peptide sequence: SVENCVCIMR, peptide start residue: 569)	-0.552
UniProt P70339 (peptide sequence: LLRPTGSAETGNPAPPGAVR, peptide start residue: 89)	-0.36
UniProt Q02257 (peptide sequence: QEGLESVLK, peptide start residue: 386)	-0.757
UniProt Q01730 (peptide sequence: ELHIQGNR, peptide start residue: 184)	-0.475
UniProt P70459 (peptide sequence: ARPPGPPELGAFRGPPLAR, peptide start residue: 206)	-0.301
UniProt P97801 (peptide sequence: HALKNGDICETPDKPK, peptide start residue: 49)	0.352
UniProt P97813 (peptide sequence: FAVTHSPAR, peptide start residue: 129)	-0.223
UniProt P83887 (peptide sequence: KREAFMEQFR, peptide start residue: 400)	0.716
UniProt P97429 (peptide sequence: NHLLHVFDEYKR, peptide start residue: 203)	0.494
UniProt P70182 (peptide sequence: RATVSEGPSASVMPVKK, peptide start residue: 32)	0.395
UniProt P69566 (peptide sequence: HQLSSLTVPELNSLNVSR, peptide start residue: 456)	0.261
UniProt Q01320 (peptide sequence: LCNIFSTK, peptide start residue: 178)	-0.143
UniProt P63328 (peptide sequence: LSTTDRVVK, peptide start residue: 11)	-0.166
UniProt P81069 (peptide sequence: DVVELLIK, peptide start residue: 118)	0.251
UniProt P70452 (peptide sequence: KTQHGVLSQQFVELINK, peptide start residue: 124)	-0.215

Nine entries from above, bar-delimited.
Target | log2 fold change
UniProt P97801 (peptide sequence: HALKNGDICETPDKPK, peptide start residue: 49) | 0.352
UniProt P97813 (peptide sequence: FAVTHSPAR, peptide start residue: 129) | -0.223
UniProt P83887 (peptide sequence: KREAFMEQFR, peptide start residue: 400) | 0.716
UniProt P97429 (peptide sequence: NHLLHVFDEYKR, peptide start residue: 203) | 0.494
UniProt P70182 (peptide sequence: RATVSEGPSASVMPVKK, peptide start residue: 32) | 0.395
UniProt P69566 (peptide sequence: HQLSSLTVPELNSLNVSR, peptide start residue: 456) | 0.261
UniProt Q01320 (peptide sequence: LCNIFSTK, peptide start residue: 178) | -0.143
UniProt P63328 (peptide sequence: LSTTDRVVK, peptide start residue: 11) | -0.166
UniProt P81069 (peptide sequence: DVVELLIK, peptide start residue: 118) | 0.251

Further entries

Target	log2 fold change
UniProt Q01768 (peptide sequence: EIHLWFKPEELIDYK, peptide start residue: 129)	0.335
UniProt P97822 (peptide sequence: DLSTVEALQNLK, peptide start residue: 102)	-0.171
UniProt P70297 (peptide sequence: DPGTVATKKEEEDLAK, peptide start residue: 163)	-0.0769
UniProt Q00PI9 (peptide sequence: YGGQPLFSEK, peptide start residue: 262)	0.255
UniProt P80316 (peptide sequence: QQISLATQMVR, peptide start residue: 515)	-0.151
UniProt P70700 (peptide sequence: ANVSINNENLMK, peptide start residue: 407)	0.383
UniProt Q00899 (peptide sequence: KIKEDDAPR, peptide start residue: 286)	0.236
UniProt P70181 (peptide sequence: KLEHSWK, peptide start residue: 399)	-0.341
UniProt P70677 (peptide sequence: SGTDVDAANLR, peptide start residue: 65)	-0.282
UniProt P70261 (peptide sequence: AEEDFVSYTPR, peptide start residue: 176)	-0.28
UniProt P63300 (peptide sequence: GDGYVDTESK, peptide start residue: 63)	-0.104
UniProt P98083 (peptide sequence: DLFDMKPFEDALR, peptide start residue: 453)	0.376
UniProt P97808 (peptide sequence: IEPLSPSK, peptide start residue: 108)	-0.301
UniProt P97314 (peptide sequence: GYGYGQGAGTLNMDRGER, peptide start residue: 70)	-0.243
UniProt P97379 (peptide sequence: QYYTLLNK, peptide start residue: 18)	0.167
UniProt P70170 (peptide sequence: VKPPEDLQDLGVR, peptide start residue: 202)	0.488
UniProt P70336 (peptide sequence: KYVIVSSKK, peptide start residue: 1173)	-0.932
UniProt P70227 (peptide sequence: ERPSDEEGFLQPHGEK, peptide start residue: 1149)	0.632
